Measured values reported in patent US20100227824A1.
These are yes or no findings as the source states them, for the method shown. Some entries that bind do so weakly or less than the wild type.

Protein sequences, listed by entry. Tags and fused reporters are not part of them. Lines headed by an entry give the natural chain unless they say otherwise; changes in a name come on top. Residues count along the entry.
UniProt P78423, residues 25-100: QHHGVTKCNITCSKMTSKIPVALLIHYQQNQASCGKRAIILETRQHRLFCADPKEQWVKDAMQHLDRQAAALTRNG
UniProt P48061: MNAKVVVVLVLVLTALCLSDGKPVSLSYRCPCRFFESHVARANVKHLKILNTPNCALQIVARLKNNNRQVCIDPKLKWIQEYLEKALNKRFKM
SDF-1β (CXCL12): residues 22-93 of P48061
SDF-1 (isoform not told): residues 22-89 of P48061
UniProt P10145, residues 28-99: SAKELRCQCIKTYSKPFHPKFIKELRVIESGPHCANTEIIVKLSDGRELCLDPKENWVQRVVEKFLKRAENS
UniProt Q9Y258, residues 24-94: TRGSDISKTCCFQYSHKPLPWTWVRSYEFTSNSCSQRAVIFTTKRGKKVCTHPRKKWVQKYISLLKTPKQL
UniProt P13501, residues 24-91: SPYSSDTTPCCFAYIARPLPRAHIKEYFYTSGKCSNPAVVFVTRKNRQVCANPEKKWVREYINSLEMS
UniProt O15444, residues 24-150: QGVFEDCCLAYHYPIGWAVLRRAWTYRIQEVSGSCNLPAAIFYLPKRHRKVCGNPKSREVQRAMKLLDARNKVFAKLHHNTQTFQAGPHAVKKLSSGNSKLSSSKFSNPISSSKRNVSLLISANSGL

T1: I-309 (CCL1) (UniProt P22362)
T1 sequence (looked up): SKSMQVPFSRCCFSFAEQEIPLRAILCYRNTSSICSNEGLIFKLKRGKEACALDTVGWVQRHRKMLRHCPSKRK

T2: I-TAC (CXCL11) (UniProt O14625)
T2 sequence (looked up): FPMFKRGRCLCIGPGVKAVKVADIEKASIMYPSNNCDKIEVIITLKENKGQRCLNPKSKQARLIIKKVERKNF

T3: BCA-1 (CXCL13) (UniProt O43927)
T3 sequence (looked up): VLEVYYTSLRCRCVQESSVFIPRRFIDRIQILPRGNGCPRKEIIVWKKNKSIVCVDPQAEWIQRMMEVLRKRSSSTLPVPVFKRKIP


How the values were obtained:
[1] = target: Fractalkine (CX3CL1) (UniProt P78423); assay: micro-array, biotinylated peptide on printed CK
[2] = target: SDF-1 (isoform not told) (UniProt P48061); assay: micro-array, biotinylated peptide on printed CK
[3] = target: IL-8 (CXCL8) (UniProt P10145); assay: micro-array, biotinylated peptide on printed CK
[4] = target: IL-8 (CXCL8) (UniProt P10145); assay: micro-array, phage-presented peptide on printed CK
[5] = target: Fractalkine (CX3CL1) (UniProt P78423); assay: micro-array, phage-presented peptide on printed CK
[6] = target: SDF-1 (isoform not told) (UniProt P48061); assay: micro-array, phage-presented peptide on printed CK
[7] = target: T1, I-309 (CCL1); assay: micro-array, phage-presented peptide on printed CK
[8] = target: Eotaxin 3 (CCL26) (UniProt Q9Y258); assay: micro-array, phage-presented peptide on printed CK
[9] = target: SDF-1β (CXCL12) (UniProt P48061); assay: micro-array, phage-presented peptide on printed CK
[10] = target: RANTES (CCL5) (UniProt P13501); assay: micro-array, phage-presented peptide on printed CK
[11] = target: T2, I-TAC (CXCL11); assay: micro-array, phage-presented peptide on printed CK
[12] = target: TECK (CCL25) (UniProt O15444); assay: micro-array, phage-presented peptide on printed CK
[13] = target: T3, BCA-1 (CXCL13); assay: micro-array, phage-presented peptide on printed CK

Binder | binding [4] | binding [5] | other results
FFGLNNC (biotinylated (N-terminus)) [Chemokine Binding Peptide 10 (CBP10)] | – | – | binding [1]: binds
LFGNDCE (biotinylated (N-terminus)) [Chemokine Binding Peptide 5 (CBP5)] | – | – | binding [2]: binds; binding [3]: binds; binding [1]: binds
WVFGSGLCK [Phage-Presented Peptide 15 (Ph-p15)] | binds | binds | –
HHTCSLHFP [Phage-Presented Peptide 16 (Ph-p16)] | binds | binds | –
HYTCSSHFP [Phage-Presented Peptide 17 (Ph-p17)] | binds | – | –
DRYLNIVHAT [Phage-Presented Peptide 18 (Ph-p18)] | binds | – | –
TKCQKE [Phage-Presented Peptide 20 (Ph-p20)] | binds | binds | –
WVFGHGMCK [Phage-Presented Peptide 25 (Ph-p25)] | – | binds | –
SYYDDVGL [Phage-Presented Peptide 27 (Ph-p27)] | binds | binds | –
WVFGNAMCK [Phage Presented (Ph) Peptide (p) 8] | binds | binds | binding [6]: binds; binding [7]: binds; binding [8]: binds; binding [9]: binds; binding [10]: binds; binding [11]: binds; binding [12]: binds; binding [13]: binds
DYDYGAPC [Phage-Presented Peptide 30 (Ph-p30)] | – | binds | –
DYDYG [Phage-Presented Peptide 31 (Ph-p31)] | – | binds | –
WVFGVHFCK [Phage-Presented Peptide 8.77 (Ph-p8.77)] | – | binds | –
WVFGAAMCK [Phage-Presented Peptide 8.8 (Ph-p8.8)] | binds | binds | binding [6]: binds
